Laboratory results published in patent US12533444B2, “Mitigation of peri-implantitis by design and stability of bifunctional peptides with antimicrobial properties” (priority 2019, dated 2026).

Test: Mechanical durability assay (electric toothbrush brushing of functionalized discs)
Details: one minute

| Sequence | bifunctional peptide coating retained after brushing [%] |
| --- | --- |
| RPRENRGRERGLGSGGGGKIIKLKASLKLL [TiBP-GL13K, comparative bifunctional peptide: TiBP, GSGGG spacer, GL13K antimicrobial domain] | 27 |
| RPRENRGRERGLGSGGGKWKLWKKIEKWGQGIGAVLKWLTTW [TiBP-AMPA] | 75 |
